Measurements as given in PubChem BioAssay AID743255 (National Center for Advancing Translational Sciences (NCATS), 2014).
The campaign covered roughly 390,000 compounds. About 910 (0.23%) were called active. The shares of active, inactive and inconclusive entries below differ from those in the screen. The call rests on the fitted dose curve; in most records, active means well fitted inhibition curve with a large enough effect; inconclusive means small, poorly fitted or top-dose-only effect; inactive means no such curve, though single readings can be large or run the other way. Potencies beside an inconclusive call are fits to weak or partial responses and may not hold up.
Further: nearly all actives have a fitted effect of over 60% in size.
On the % scale 0 is the no-effect control and ±100 the full control effect; potency means the concentration at half of the fitted maximal effect.

Chains of the proteins cited; added tags and fusions are not shown. Lines headed by an entry give the natural chain unless they say otherwise; changes in a name come on top.
UniProt O94782: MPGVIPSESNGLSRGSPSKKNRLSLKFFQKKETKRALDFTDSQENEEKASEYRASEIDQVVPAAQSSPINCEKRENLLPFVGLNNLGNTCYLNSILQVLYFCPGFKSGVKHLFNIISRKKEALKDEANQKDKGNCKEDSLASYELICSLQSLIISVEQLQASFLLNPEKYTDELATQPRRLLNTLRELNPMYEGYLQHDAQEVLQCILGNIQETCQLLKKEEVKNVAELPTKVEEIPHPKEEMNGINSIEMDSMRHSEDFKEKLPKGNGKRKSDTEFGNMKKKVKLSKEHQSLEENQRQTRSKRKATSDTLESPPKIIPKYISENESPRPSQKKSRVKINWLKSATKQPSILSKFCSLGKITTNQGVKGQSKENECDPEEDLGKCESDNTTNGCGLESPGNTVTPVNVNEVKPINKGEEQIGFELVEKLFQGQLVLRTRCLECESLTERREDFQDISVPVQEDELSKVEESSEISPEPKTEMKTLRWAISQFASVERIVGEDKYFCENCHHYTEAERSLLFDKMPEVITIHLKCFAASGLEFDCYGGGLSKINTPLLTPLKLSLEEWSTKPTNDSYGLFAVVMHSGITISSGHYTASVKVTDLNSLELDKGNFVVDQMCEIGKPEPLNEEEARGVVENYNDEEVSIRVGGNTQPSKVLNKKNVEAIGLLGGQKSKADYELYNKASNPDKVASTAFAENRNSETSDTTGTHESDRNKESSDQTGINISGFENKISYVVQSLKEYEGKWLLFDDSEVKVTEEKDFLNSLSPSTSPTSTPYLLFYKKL

Each molecule was assayed against Ubiquitin carboxyl-terminal hydrolase 1 (Homo sapiens) (UniProt O94782) (assay: Inhibitors of USP1/UAF1: Primary Screen). Conditions: recombinant USP1/UAF1, Ub-Rhodamine cleavage fluorescence; activity change, negative = inhibition: at 57.1 µM (top of the series).
How it was run: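 USP1/UAF1 complex at 1 nM was preincubated with compound for 15 min at room temperature, then Ub-Rho substrate (150nM final) was added. Fluorescence (480/540 nm) was read kinetically, 6 reads every 60 seconds.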
For `Cc1ccc(N=Cc2nc(-c3ccco3)oc2O)cc1`, the Potency was inconclusive: 39.8 µM [inhibitor, single point]. `O=C1CC[C@H](O)CCN1CCSc1ccc(Br)cc1` was tested, and the Potency was inconclusive: 0.251 µM [inhibitor, full curve, poor fit]. `Cc1ccc(NC(=O)CN(C)S(=O)(=O)c2cccc3cccnc23)cc1F` was tested, and the Potency was inconclusive: 0.708 µM [inhibitor, full curve]. In the case of `C=C(C)CSC1=C(C#N)C(c2ccsc2)CC(=O)N1` (configuration not stated), the Potency was “inactive”. With `NC(=O)c1cc([N+](=O)[O-])c(Cl)cc1NCc1ccncc1` the Potency was inconclusive: 5.62 µM [inhibitor, full curve, poor fit]. `COc1cc2c(cc1OC)CN(CC(=O)Nc1cccc(C(F)(F)F)c1)CC2` was tested, and the Potency was inconclusive: 22.4 µM [inhibitor, partial curve]. In the case of `Cc1ccc(/C=C2/SC(=O)N(CC(=O)N3CCOCC3)C2=O)s1`, the Potency was inconclusive: 44.7 µM [inhibitor, partial curve, poor fit]. With `Cc1ccccc1NC(=O)C(=O)NCC1(c2ccccc2)CCCC1` the Potency was inconclusive: 0.891 µM [inhibitor, full curve, poor fit]. In the case of `NS(=O)(=O)c1ccc(N=Nc2ccc(=O)[nH]c2O)cc1`, the Potency was inconclusive: 10 µM [inhibitor, partial curve]. For `O=C1NC(=O)/C(=C/c2ccc(-c3cc(C(=O)O)ccc3Cl)o2)S1`, the Potency was inconclusive: 35.5 µM [inhibitor, partial curve]. `O=C1CCCC2=C1C1(O)C(=O)c3ccccc3C1(O)O2` (configuration not stated) was tested, and the Potency was “inactive”. For `Cc1ccc(NC(=O)[C@H]2O[C@@H]3OC(C)(C)O[C@@H]3[C@H]3OC(C)(C)O[C@H]32)cc1F`, the Potency was inconclusive: 7.08 µM [inhibitor, partial curve, poor fit]. For `CCCN1CCN(S(=O)(=O)c2ccc3c(c2)OCCO3)CC1`, the Potency was inconclusive: 5.62 µM [inhibitor, full curve]. In the case of `CCc1ccc(CNC(=O)C2CCCN(c3nnc(C)c4c(C)n(-c5ccc(OC)cc5)nc34)C2)cc1` (configuration not stated), the Potency was inconclusive: 35.5 µM [inhibitor, partial curve, poor fit]. In the case of `c1ccc(C2CCCN(Cc3nc(CC4CC4)no3)CC2)cc1` (configuration not stated), the activity change, negative = inhibition was inconclusive: -18.5% [inhibitor]. For `CCN(CC)c1ccc(/C=N/NC(=O)c2cccc(S(=O)(=O)Nc3ccccc3OC)c2)c(O)c1`, the Potency was inconclusive: 28.2 µM [inhibitor, partial curve]. `COc1ccccc1CNS(=O)(=O)c1cc(Br)cc2c1N(C(C)=O)C(C)C2` (configuration not stated) was tested, and the Potency was inconclusive: 0.316 µM [inhibitor, full curve, poor fit]. For `Cc1ccc(N2C(=O)C(CN3CCCCC3)C2c2ccccc2)cc1` (configuration not stated), the Potency was inconclusive: 56.2 µM [inhibitor, single point]. For `COc1cc(/C=C(/C(=O)c2cccs2)c2nc3ccccc3[nH]2)cc(OC)c1O`, the Potency was inconclusive: 28.2 µM [inhibitor, partial curve]. With `Cc1ccc(N(C(=O)c2snc(C(N)=O)c2N)C(C(=O)NCC2CCCO2)c2c[nH]c3ccccc23)cc1` (configuration not stated) the Potency was inconclusive: 10 µM [inhibitor, partial curve, poor fit]. For `COc1cccc(/C=C2\CCc3ccccc3C2=O)c1`, the Potency was inconclusive: 50.1 µM [inhibitor, partial curve, poor fit]. In the case of `COCC1CCN(Cc2c(C(=O)N3CCOCC3)nc3c(C)cccn23)C1` (configuration not stated), the Potency was inconclusive: 0.126 µM [inhibitor, full curve, poor fit]. In the case of `CCOC(=O)c1c(C)oc2c1c(C=NCc1ccccn1)c(O)c1ccccc12`, the Potency was inconclusive: 22.4 µM [inhibitor, partial curve]. With `COc1ccc(OC)c(S(=O)(=O)NCc2cc(-c3ccccc3)no2)c1` the Potency was “inactive”. In the case of `Cc1ccc2nc3n(c(=O)c2c1)-c1cc2ccccc2cc1C(=O)NC3Cc1ccccc1` (configuration not stated), the Potency was inconclusive: 0.251 µM [inhibitor, full curve]. In the case of `O=C(COC(=O)c1ccc2c(c1)OCCO2)NCc1ccc(Cl)cc1`, the Potency was inconclusive: 0.251 µM [inhibitor, full curve, poor fit]. In the case of `O=c1cc(-c2ccccc2)nc2n1Cc1ccccc1-2`, the Potency was “inactive”. In the case of `CCOc1cc(/C=C2\SC(=S)N(C(C(=O)O)c3ccccc3)C2=O)ccc1O` (configuration not stated), the Potency was inconclusive: 17.8 µM [inhibitor, partial curve]. `CCc1ccc(C(=O)c2cnc3ccc(F)cc3c2S(=O)(=O)c2ccccc2)cc1` was tested, and the Potency was inconclusive: 35.5 µM [inhibitor, partial curve, poor fit]. For `CCOC(=O)C1C(=O)C=C(/C=C/c2ccc(N(C)C)cc2)CC1c1ccccc1` (configuration not stated), the Potency was inconclusive: 5.62 µM [inhibitor, partial curve]. `CC1CN(CCCOc2ccccc2-c2ccccc2)CC(C)O1` (configuration not stated) was tested, and the Potency was inconclusive: 50.1 µM [inhibitor, partial curve, poor fit]. For `CCn1c(NCc2cc(Cl)ccc2O)nc2ccccc21`, the Potency was “inactive”. For `CCOc1cc(C(=O)NCc2ccc3c(c2)CCN3C(=O)c2ccc(F)cc2)cc(OCC)c1OCC`, the Potency was inconclusive: 0.355 µM [inhibitor, full curve]. `c1csc(Cc2nn3c(-c4n[nH]c5c4CCC5)nnc3s2)c1` was tested, and the Potency was “inactive”. `C[C@H](CO)N1C[C@H](C)[C@@H](CN(C)S(C)(=O)=O)Oc2ccc(NC(=O)NC3CCCCC3)cc2C1=O` was tested, and the Potency was inconclusive: 63.1 µM [inhibitor, partial curve, poor fit]. For `COc1cc(/C=C2\SC(c3ccccc3)=NC2=O)cc(Cl)c1O`, the Potency was inconclusive: 35.5 µM [inhibitor, partial curve]. With `C=CCCCCCCCCc1nc(=S)[nH][nH]1` the Potency was inconclusive: 44.7 µM [inhibitor, partial curve, poor fit]. `C=C1c2ccccc2O[C@H](C(=O)OCC)[C@@H]1C1CCCCC1` was tested, and the Potency was inconclusive: 50.1 µM [inhibitor, partial curve, poor fit]. In the case of `COc1ccccc1NC(=O)C(C)Sc1nnc2ccc3ccccc3n12` (configuration not stated), the Potency was inconclusive: 44.7 µM [inhibitor, partial curve]. For `COc1ccc(-c2cc(CCC(=O)N3CCN(c4cc(C)ccc4C)CC3)on2)cc1`, the Potency was inconclusive: 15.8 µM [inhibitor, partial curve]. `Cc1cccc(N2CCN(C(=O)C3CCCN(S(=O)(=O)c4ccc5c(c4)oc(=O)n5C)C3)CC2)c1C` (configuration not stated) was tested, and the Potency was inconclusive: 39.8 µM [inhibitor, partial curve]. For `CCC/C(O)=C1\C(=O)CCCC1=NC(C)C(=O)O` (configuration not stated), the Potency was inconclusive: 28.2 µM [inhibitor, single point]. `O=S(=O)(c1ccc2nc(Cc3ccccc3)[nH]c2c1)N1CCOCC1` was tested, and the Potency was inconclusive: 35.5 µM [inhibitor, partial curve, poor fit]. For `Cc1ccc(S(=O)(=O)CCCS(=O)(=O)c2ccc(C)cc2)cc1`, the Potency was “inactive”. For `O=C(Nc1ccc(Br)cc1)C1CCN(C(=O)c2ccco2)CC1`, the Potency was “inactive”. `CSc1ccccc1NC(=O)Nc1ccc(Cl)cc1` was tested, and the Potency was inconclusive: 35.5 µM [inhibitor, single point]. In the case of `O=C(O)C(=O)/C(=C\c1ccc([N+](=O)[O-])cc1)c1ccc2ccccc2n1`, the Potency was “inactive”. For `COc1ccc(-c2cn3nc(N4CCCC(C(=O)Nc5cc(C)ccc5C)C4)sc3n2)cc1` (configuration not stated), the Potency was inconclusive: 126 µM [inhibitor, partial curve, poor fit]. In the case of `COc1cccc(OC)c1OCCN1CCN(C(c2ccccc2)c2ccccc2)CC1`, the Potency was “inactive”. In the case of `O=C([O-])c1ccccc1-[n+]1c(-c2ccccc2)cc(-c2ccccc2)cc1-c1ccccc1`, the Potency was inconclusive: 70.8 µM [inhibitor, partial curve, poor fit]. In the case of `CC(NS(=O)(=O)c1ccc(Br)cc1)C(=O)NCC1CCCO1` (configuration not stated), the Potency was inconclusive: 31.6 µM [inhibitor, partial curve]. `CC(C)[C@H](NS(=O)(=O)c1ccccc1)C(=O)OCC(=O)NC(=O)NC1CCCCC1` was tested, and the Potency was inconclusive: 1 µM [inhibitor, full curve, poor fit]. In the case of `COC(=O)c1oc2ccc(Br)cc2c1NC(C)=O`, the Potency was inconclusive: 5.62 µM [inhibitor, partial curve, poor fit]. In the case of `COc1cc(C(=O)Nc2ccc(C)c(S(=O)(=O)N(C)C)c2)ccc1OCC(=O)N1CCOCC1`, the Potency was inconclusive: 0.316 µM [inhibitor, full curve]. With `CCCCNC(=O)Cn1c(=O)n(C)c2ccccc21` the Potency was inconclusive: 5.01 µM [inhibitor, partial curve]. For `NC(=S)N=Nc1ccc(O)cc1`, the Potency was inconclusive: 44.7 µM [inhibitor, partial curve, poor fit]. For `CN(C)c1ccc(/C=N/O)cc1`, the Potency was inconclusive: 5.01 µM [inhibitor, partial curve]. In the case of `O=C(NCCc1ccc(F)cc1)C(=O)NCC(c1cccs1)S(=O)(=O)c1ccc(F)cc1` (configuration not stated), the Potency was inconclusive: 35.5 µM [inhibitor, partial curve]. For `COc1cccc2c1C(=O)C[C@]1(CCCC[C@@H]1C)O2`, the Potency was inconclusive: 39.8 µM [inhibitor, partial curve]. In the case of `CCN(C(=O)CCS(=O)(=O)c1cc2[nH]c(=O)c(=O)[nH]c2cc1C)c1ccccc1`, the Potency was inconclusive: 3.16 µM [inhibitor, full curve]. In the case of `CCC1CCCCN1CCCNC(=O)c1[nH]c2ccccc2c1Sc1ccc(Cl)cc1` (configuration not stated), the Potency was inconclusive: 63.1 µM [inhibitor, partial curve, poor fit]. `CCOc1ccc(C(c2c(O)cc(C)n(CCOC)c2=O)N2CCN(c3ccccc3)CC2)cc1` (configuration not stated) was tested, and the Potency was inconclusive: 50.1 µM [inhibitor, partial curve, poor fit].
